Paper PMC10027610

Molecular target: HD2A-FLAG (pHD2A:HD2A-FLAG transgene) (Arabidopsis thaliana)
Assay: affinity purification with mass spectrometry; IP-MS: lysate of 10 g unopened floral buds of FLAG-tag transgenic plants (Col-0 wild type as control) in IP buffer, anti-FLAG M2 magnetic beads, 4 °C for 2 h, eluted with 3xFLAG peptides, TCA precipitation, MS

Row | Binder | binding
1 | HD2B (enzyme, UniProt Q56WH4 1-306) MEFWGVAVTPKNATKVTPEEDSLVHISQASLDCTVKSGESVVLSVTVGGAKLVIGTLSQDKFPQISFDLVFDKEFELSHSGTKANVHFIGYKSPNIEQDDFTSSDDEDVPEAVPAPAPTAVTANGNAGAAVVKADTKPKAKPAEVKPAEEKPESDEEDESDDEDESEEDDDSEKGMDVDEDDSDDDEEEDSEDEEEEETPKKPEPINKKRPNESVSKTPVSGKKAKPAAAPASTPQKTEEKKKGGHTATPHPAKKGGKSPVNANQSPKSGGQSSGGNNNKKPFNSGKQFGGSNNKGSNKGKGKGRA | binds
2 | HD2C (enzyme, UniProt Q9LZR5 1-294) MEFWGVEVKNGKPLHLDPGLDRLVHISQVALGESKNNVTEPIQLYVTVGSDKLLIGTLSHEKFPQLSTEIVLERNFALSHTWKNGSVFFSGYKVDASDPEPEDLIDDQLEAAGFKAAPKSAAKQVNFQLPNEDVKAKQDDDADGSEEDSSDDDDSENSGDEEEEKVTAESDSEEDDSSDDEEDDSSEEETPKKPEEPKKRSAEPNSSKNPASNKKAKFVTPQKTDSKKPHVHVATPHPSKQAGKNSGGGSTGETSKQQQTPKSAGAFGCKSCTRTFTSEMGLQSHTKAKHSAAA | binds

No constants are given. Whether binding was seen depends on the method and setting. In cells and extracts the contact can be indirect. These calls come from enrichment with a bait or labelling near it, and not all partners need be listed.
